# According to paper PMC10656488:
# Protein sequences, listed by entry. Tags and fused reporters are not part of them. Residues count along the entry.
# UniProt P20029, residues 20-655: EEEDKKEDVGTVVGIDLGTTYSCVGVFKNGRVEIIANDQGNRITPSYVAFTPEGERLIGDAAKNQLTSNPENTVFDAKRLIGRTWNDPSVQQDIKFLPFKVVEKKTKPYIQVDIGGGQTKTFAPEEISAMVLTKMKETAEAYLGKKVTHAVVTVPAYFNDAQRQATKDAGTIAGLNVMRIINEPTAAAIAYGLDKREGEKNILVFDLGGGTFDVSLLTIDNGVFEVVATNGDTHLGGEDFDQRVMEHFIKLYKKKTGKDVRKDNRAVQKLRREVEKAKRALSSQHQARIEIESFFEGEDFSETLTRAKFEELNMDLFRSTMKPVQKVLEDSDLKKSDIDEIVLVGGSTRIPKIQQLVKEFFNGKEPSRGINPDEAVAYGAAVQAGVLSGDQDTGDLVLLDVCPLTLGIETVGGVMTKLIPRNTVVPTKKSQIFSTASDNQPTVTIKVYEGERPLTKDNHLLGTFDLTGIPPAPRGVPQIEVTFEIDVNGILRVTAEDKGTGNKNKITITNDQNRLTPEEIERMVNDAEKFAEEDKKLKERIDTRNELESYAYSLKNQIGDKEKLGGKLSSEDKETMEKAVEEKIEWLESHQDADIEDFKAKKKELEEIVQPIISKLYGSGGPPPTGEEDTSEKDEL
# UniProt Q8K341: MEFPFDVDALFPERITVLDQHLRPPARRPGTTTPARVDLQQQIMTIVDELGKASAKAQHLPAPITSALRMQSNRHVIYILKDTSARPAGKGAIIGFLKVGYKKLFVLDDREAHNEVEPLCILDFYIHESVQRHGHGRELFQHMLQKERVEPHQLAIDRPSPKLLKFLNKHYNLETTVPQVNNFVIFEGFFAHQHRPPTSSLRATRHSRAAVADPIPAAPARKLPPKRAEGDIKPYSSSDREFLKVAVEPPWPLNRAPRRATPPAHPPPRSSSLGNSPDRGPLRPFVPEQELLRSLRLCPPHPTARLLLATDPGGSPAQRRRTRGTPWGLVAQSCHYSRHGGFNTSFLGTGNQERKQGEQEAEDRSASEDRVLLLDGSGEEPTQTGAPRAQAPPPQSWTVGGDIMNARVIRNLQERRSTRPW
# Results are given in words; binding and its absence hold for the method and conditions named. In cells and extracts the contact can be indirect. Some results given as binding are weak or reduced against the parent protein; the word gives no strength.
# Molecular target: heat shock protein 5 (HSPA5) (mouse (endogenous in peritoneal macrophages)) (UniProt P20029)
# Experiment: co-IP
substance,measurement,value
alpha-tubulin acetyltransferase 1 (ATAT1) (from UniProt Q8K341 1-421) (enzyme),binding,binds
